Assay results reported in US12343319B2, “Compositions and methods for treatment of diseases and disorders” (Atai Therapeutics Inc., priority 2023, dated 2025).
For at least one compound, name, drawing or mass did not settle the structure.

By UniProt entry, the sequences of proteins in these tests, tags left out.
UniProt P14842, whole entry: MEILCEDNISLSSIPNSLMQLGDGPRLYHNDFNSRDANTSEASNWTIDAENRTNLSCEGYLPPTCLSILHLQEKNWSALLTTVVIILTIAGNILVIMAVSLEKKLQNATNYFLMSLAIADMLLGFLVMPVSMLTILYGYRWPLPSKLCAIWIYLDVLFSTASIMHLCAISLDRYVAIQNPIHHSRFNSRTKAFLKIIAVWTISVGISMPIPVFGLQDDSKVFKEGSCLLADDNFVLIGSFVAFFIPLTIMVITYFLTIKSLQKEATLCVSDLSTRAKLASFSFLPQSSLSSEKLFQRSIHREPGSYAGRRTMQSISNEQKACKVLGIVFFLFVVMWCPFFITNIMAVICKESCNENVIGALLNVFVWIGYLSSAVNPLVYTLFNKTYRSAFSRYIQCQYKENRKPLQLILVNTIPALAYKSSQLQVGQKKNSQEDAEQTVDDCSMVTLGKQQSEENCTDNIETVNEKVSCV
UniProt P30994, whole entry: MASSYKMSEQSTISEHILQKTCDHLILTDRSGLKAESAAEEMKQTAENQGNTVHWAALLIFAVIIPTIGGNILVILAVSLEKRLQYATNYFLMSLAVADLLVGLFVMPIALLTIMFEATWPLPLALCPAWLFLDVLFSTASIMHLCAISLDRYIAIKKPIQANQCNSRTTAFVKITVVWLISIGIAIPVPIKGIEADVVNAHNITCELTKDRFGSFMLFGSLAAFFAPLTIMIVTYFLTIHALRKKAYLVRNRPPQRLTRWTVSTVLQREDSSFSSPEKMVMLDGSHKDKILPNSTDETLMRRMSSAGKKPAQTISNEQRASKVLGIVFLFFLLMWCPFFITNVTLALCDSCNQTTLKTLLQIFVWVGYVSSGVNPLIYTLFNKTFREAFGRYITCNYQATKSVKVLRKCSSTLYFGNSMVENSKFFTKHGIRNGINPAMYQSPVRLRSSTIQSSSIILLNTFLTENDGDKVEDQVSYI

How the values were obtained:
5-HT2A (rat) = 5-HT2A (rat) (Rattus norvegicus, UniProt P14842); assay: IPOne, rat 5-HT2A; format: cell-based; settings: rat 5-HT2A receptor
Description: (§1) Overall, in vitro activity at rodent 5-HT2A and 5-HT2B receptors is consistent with the human receptor results, with compound 2-1 acting as a potent and selective 5-HT2A agonist.
(§2) Overall, in vitro activity at rodent 5-HT2A and […] receptors is consistent with the human receptor results, with compound 2-2 acting as a potent and selective 5-HT2A agonist. In Table 5, ND indicates not determined.

5-HT2B (rat) = 5-HT2B (rat) (Rattus norvegicus, UniProt P30994); assay: IPOne, rat 5-HT2B; format: cell-based; settings: rat 5-HT2B receptor
Description: as §1, §2

Male WKY rats [1] = assay: Low-dose sleep, locomotor, body temperature and qEEG study in WKY rats; format: in vivo, rat; settings: 1, 3 and 10 mg/kg IP
Method: The aim of the current study was to identify a minimal effective dose of compound by testing a series of lower doses (1, 3 and 10 mg/kg). The study was carried out similarly to Examples 7 and 9 with differences noted below. Male WKY rats (n=8, 255-296 g at the start of dosing) were housed in groups of 2-3 animals per cage with standard housing conditions.

Male WKY rats [2] = assay: Confirmatory 30 mg/kg sleep, locomotor, body temperature and qEEG study in WKY rats; format: in vivo, rat; settings: 30 mg/kg IP
Method: The aim of the current study was to confirm the effects of compound 2-2 (30 mg/kg) on sleep-wake behavior and EEG brain oscillatory power in an independent cohort of male Wistar Kyoto rats. The study was carried out similarly to Examples 7 and 9 with differences noted below. Male WKY rats (n=8, 323-352 g at the start of dosing) were housed in groups of 2-3 animals per cage with standard housing conditions.

male Sprague Dawley rats = assay: Psilocybin operant drug discrimination in rats; format: in vivo, rat; settings: for substitution for psilocybin: 10 mg/kg IP
Method: Thirty-six (36) male Sprague Dawley rats served as subjects. Rats had been trained to lever press for food in standard operant conditioning chambers controlled by Med-PC software (Med. Associates Inc., St. Albans, VT) followed by training to associate the right lever to a psilocybin stimulus (0.5 mg/kg, SC), and the left lever to a neutral stimulus (saline, SC). The sequence of psilocybin and saline injections were administered under a randomized design where neither condition was administered for more than 3 consecutive days. […] The rats continued to receive a daily food ration (˜18 g at day end) with ad libitum access to water in their home cages.
Test sessions continued until 50 pellets had been obtained or 30 min had elapsed. During these sessions, response rate was also measured. Three types of tests were conducted: • 1. Dose-response profile for compound 2-2 to generalize to the psilocybin cue. On test days, rats received a single compound 2-2 dose (1, 3, or 10 mg/kg, IP) 10 min prior to test. The distribution of vehicle vs. drug-paired lever presses was recorded as well as the rate of lever response. • 2. Effect of the 5-HT subtype selective antagonists, M100907 (5-HT2A receptor selective; Kehne et al, 1996) and SB242084 (5-HT2C receptor selective, Kennett et al, 1997) against the generalization of compound 2-2. On test days, the rats received a single dose (0.5 mg/kg IP) of either antagonist 30 min before compound 2-2 (10 mg/kg, IP), which was administered 10 min prior to testing. The distribution of vehicle vs. drug-paired lever presses was recorded as well as the rate of lever response. • 3. Time-course profile for compound 2-2 (10 mg/kg IP) to generalize to the psilocybin cue. On test days, the rats received a single compound 2-2 dose (10 mg/kg, IP) at various pretreatment times (i.e., 10 min, 30 min, 1 h, 2 h, 4 h, 8 h) prior to test. The distribution of vehicle vs. drug-paired lever presses was recorded as well as the rate of lever response.
Drug testing was conducted on a Tuesday and Friday with the animals run on either vehicle or training drug (psilocybin 0.5 mg/kg, SC) on intervening weekdays. Group sizes varied among doses and pretreatment times and tended to be higher under situations where the choice response was more variable. This adjustment was made in an attempt to get as reliable a measure of drug vs. vehicle discrimination as possible at that specific dose or pretreatment time.

SMILES: COc1ccc(OC)c(CCNCc2cc(C)cc(F)c2)c1 [Compound 2-2, 2-(2,5-dimethoxyphenyl)-N-(3-fluoro-5-methylbenzyl)ethan-1-amine]
- agonist activity (in words) (5-HT2A (rat)): full agonist activity
- agonist activity (in words) (5-HT2B (rat)): did not exhibit agonist activity
- NREM sleep amounts (Male WKY rats [1]): did not affect
- NREM sleep latency (Male WKY rats [1]): did not affect
- REM sleep latency (Male WKY rats [1]): did not affect
- amount of waking (Male WKY rats [1]): did not affect
- brain oscillations in the alpha frequency (8-12 Hz) range during waking (Male WKY rats [1]): did not show psilocybin-like effects
- brain oscillations in the high-frequency gamma (50-100 Hz) range during waking (Male WKY rats [1]): did not show psilocybin-like effects
- low-frequency brain oscillations during NREM sleep (delta, theta power) (Male WKY rats [1]): psilocybin-like effects
- REM sleep amount (Male WKY rats [1]; only the 4th hour after dosing): increased
- NREM sleep amounts (Male WKY rats [2]): decreased
- REM sleep amounts (Male WKY rats [2]): decreased
- REM sleep latency (Male WKY rats [2]): increased
- amount of waking (Male WKY rats [2]): increased
- brain oscillations in the alpha frequency (8-12 Hz) range during waking (Male WKY rats [2]): did not show psilocybin-like effects
- brain oscillations in the high-frequency gamma (50-100 Hz) range during waking (Male WKY rats [2]): did show psilocybin-like effects
- low-frequency brain oscillations during NREM sleep (delta, theta power) (Male WKY rats [2]): psilocybin-like effects
- substitution for psilocybin (male Sprague Dawley rats; 1-4 h post dose): partially substituted
- substitution for psilocybin (male Sprague Dawley rats; by 8 h post dose): no substitution
- substitution for psilocybin (male Sprague Dawley rats; for 30 min post dose): fully substituted
- generalization to the psilocybin cue (in words) (male Sprague Dawley rats; dose range 1-10 mg/kg IP): full generalization
